The list shows a part of the results. This is a noisy data set.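 The cells are a human neuroglioma line carrying a green fluorescent autophagy reporter.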

This assay relates to H4 GFP-LC3. Nature of the assay: cell viability (scaled to control) (fraction of control); higher = more viable cells. The following applies: 6 h.
For `NC1(C(=O)O)CCCC1` (5 µM), the cell viability was found to be 0.865.
The same measure for `N[C@H](CO)C(=O)O` (5 µM): 1.03.
Next, `Clc1ccc2nsnc2c1NC1=NCCN1` (5 µM): 0.668.
Next, `O=C(NC1CCN(Cc2ccccc2)CC1)c1ccc(I)cc1` (5 µM): 0.885; `N[C@@H](COP(=O)(O)O)C(=O)O` (5 µM): 1.05; `CN1CCN(CCCN2c3ccccc3Sc3ccc(C(F)(F)F)cc32)CC1` (5 µM): 0.757.
Take `CC[C@H](C)[C@@H]1NC(=O)[C@H](Cc2ccc(O)cc2)NC(=O)[C@@H](N)CSSC[C@@H](C(=O)N2CCC[C@H]2C(=O)N[C@@H](CC(C)C)C(=O)NCC(N)=O)NC(=O)[C@H](CC(N)=O)NC(=O)[C@H](CCC(N)=O)NC1=O` (5 µM): the cell viability was found to be 1.16.
Turning to `CC[C@](N)(CCC(=O)O)C(=O)O` (5 µM), the cell viability amounted to 0.884.
The same measure for `CN1CCN(c2nc3cc(C(F)(F)F)ccc3n3cccc23)CC1` (5 µM): 0.879; for `C[C@]12CCC(=O)C=C1CC[C@@H]1[C@@H]2[C@@H](O)C[C@@]2(C)[C@H]1CC[C@]2(O)C(=O)CO` (5 µM): 1.06.
The same measure for `CNCCC(Oc1ccc(C(F)(F)F)cc1)c1ccccc1` (stereo unspecified) (5 µM): 0.823; for `c1ccc2c(CC3=NCCN3)cccc2c1` (5 µM): 0.849; for `Nc1c2c(nc3ccccc13)CCCC2O` (stereo unspecified) (5 µM): 0.937.
The same measure for `CS(=O)(=O)Nc1c(O)ccc2c1CCCC2C1=NCCN1` (stereo unspecified) (5 µM): 0.953; for `CCC(=O)N1CCN(c2ccc(-n3c(=O)ccc4cnc5ccc(-c6cnc7ccccc7c6)cc5c43)cc2C(F)(F)F)CC1` (0.3 µM): 1.03.
`O=C(COc1ccc(C(=O)c2ccccc2)cc1)NC1CCN(Cc2ccccc2)CC1` (5 µM): the cell viability stood at 1.

The values are drawn from the supplement of paper PMC11659162.
